Data as given in PubChem BioAssay AID1224828 (NIAID, 2016)
Here is a random part of about 17,000 reagents. In the full data, 762 (4.5%) got an active call. 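Active calls include both raised and lowered p65 entry, mostly lowered; wells with fewer than 50 cells lack a z-score.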 Raw values are not corrected between plates. The numbers tell different reagents against one gene apart.

Test: 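Find genes required for NF-kappaB p65 moving into the nucleus after LPS in mouse macrophages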 (primary screen)
Cell system: mouse RAW264.7 G9 macrophage reporter cells (GFP-p65, Tnf promoter-mCherry)
Knock-down reagent: siRNA pool against mouse genes, 100 nM
Time to read-out: 2 days siRNA transfection, then 40 min LPS before fixation
Conditions: LPS (Salmonella minnesota R595) at 10 ng/ml
Measured: 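Imaged p65 nuclear translocation ratio, normalised to the plate median, converted to robust z-scores and averaged across two replicates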
Direction: p65 translocation robust z-score: higher = more nuclear NF-kappaB p65 after LPS than the plate median; nuclear/cytoplasmic p65 ratio: higher = more nuclear NF-kappaB p65
Active means: 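Called active when z exceeds 3.3 or falls under -1.56 (median of Tlr4 controls), giving activity score of at least 50; no calls for control wells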
Calls: active = hit (p65 shift raised or lowered); inactive = no clear change

target gene | reagent | p65 translocation robust z-score | nuclear/cytoplasmic p65 ratio, rep 1 | nuclear/cytoplasmic p65 ratio, rep 2 | low cell count flag | Call
Ikbkg (GeneID 16151) | 1 | -0.92 | 1.32 | 1.25 | enough cells to score | inactive
Apip (GeneID 56369) | 1 | 1.61 | 1.96 | 1.91 | enough cells to score | inactive
Nop9 (GeneID 67842) | 1 | 1.49 | 1.64 | 1.61 | enough cells to score | inactive
Or1ad6 (GeneID 258912) | 1 | – | 1.43 | 0.857 | fewer than 50 cells per well; well left out of scoring | inactive
Ebna1bp2 (GeneID 69072) | 1 | 0.2 | 1.31 | 1.39 | enough cells to score | inactive
A930012M17 | 1 | 0.7 | 1.44 | 1.66 | enough cells to score | inactive
Kifc3 (GeneID 16582) | 1 | 1.29 | 1.62 | 1.57 | enough cells to score | inactive
Sbsn (GeneID 282619) | 1 | -0.94 | 1.22 | 1.11 | enough cells to score | inactive
Mapre1 (GeneID 13589) | 1 | 0.08 | 1.54 | 1.28 | enough cells to score | inactive
Slc18a2 (GeneID 214084) | 1 | 0.26 | 1.36 | 1.35 | enough cells to score | inactive
Sf3a3 (GeneID 75062) | 1 | -0.94 | 1.41 | 1.43 | enough cells to score | inactive
5730405M06RIK | 1 | 1.27 | 1.49 | 1.67 | enough cells to score | inactive
Bsn (GeneID 12217) | 1 | -1.93 | 1.17 | 1.24 | enough cells to score | active
Creld1 (GeneID 171508) | 1 | 0.05 | 1.58 | 1.8 | enough cells to score | inactive
Phlpp1 (GeneID 98432) | 1 | 0.46 | 1.59 | 1.44 | enough cells to score | inactive
Fbl (GeneID 14113) | 1 | – | 1.49 | 1.85 | fewer than 50 cells per well; well left out of scoring | inactive
Or6c76 (GeneID 258321) | 1 | – | 1.98 | 1.25 | fewer than 50 cells per well; well left out of scoring | inactive
Tmbim1 (GeneID 69660) | 1 | – | 1.16 | 1.21 | fewer than 50 cells per well; well left out of scoring | inactive
Ppp4r3a (GeneID 68734) | 1 | -0.38 | 1.52 | 1.36 | enough cells to score | inactive
Clic4 (GeneID 29876) | 1 | -0.42 | 1.47 | 1.27 | enough cells to score | inactive
Sstr3 (GeneID 20607) | 1 | – | 1.43 | 1.65 | fewer than 50 cells per well; well left out of scoring | inactive
Hoxc4 (GeneID 15423) | 1 | 1.62 | 1.67 | 1.57 | enough cells to score | inactive
Pdcd11 (GeneID 18572) | 1 | – | 1.12 | 1.01 | fewer than 50 cells per well; well left out of scoring | inactive
Ccdc117 (GeneID 104479) | 1 | 0.24 | 1.32 | 1.89 | enough cells to score | inactive
Vmn1r210 (GeneID 171269) | 1 | -0.04 | 1.38 | 1.17 | enough cells to score | inactive
Pacc1 (GeneID 66950) | 1 | – | 1.23 | 1.43 | fewer than 50 cells per well; well left out of scoring | inactive
Ccni (GeneID 12453) | 1 | -1.03 | 1.24 | 1.33 | enough cells to score | inactive
Grin2b (GeneID 14812) | 1 | 0.5 | 1.47 | 1.47 | enough cells to score | inactive
Ccl2 (GeneID 20296) | 1 | 0.92 | 1.64 | 1.45 | enough cells to score | inactive
Pttg1ip (GeneID 108705) | 1 | 0.07 | 1.6 | 1.45 | enough cells to score | inactive
Ermn (GeneID 77767) | 1 | 0.32 | 1.36 | 1.57 | enough cells to score | inactive
Adh5 (GeneID 11532) | 1 | -0.27 | 1.61 | 1.55 | enough cells to score | inactive
Ube3c (GeneID 100763) | 1 | 0.51 | 1.59 | 1.56 | enough cells to score | inactive
Alox5ap (GeneID 11690) | 1 | 0.61 | 1.7 | 1.77 | enough cells to score | inactive
Fam234b (GeneID 74525) | 1 | -0.8 | 1.45 | 1.41 | enough cells to score | inactive
Mrps9 (GeneID 69527) | 1 | -0.91 | 1.65 | 1.44 | enough cells to score | inactive
Actr1a (GeneID 54130) | 1 | -0.46 | 1.58 | 1.52 | enough cells to score | inactive
Mpdu1 (GeneID 24070) | 1 | -0.38 | 1.81 | 1.46 | enough cells to score | inactive
Rab9b (GeneID 319642) | 1 | 0.07 | 1.64 | 1.6 | enough cells to score | inactive
Cntln (GeneID 338349) | 1 | -0.88 | 1.51 | 1.36 | enough cells to score | inactive
Cntln (GeneID 338349) | 2 | -0.31 | 1.51 | 1.51 | enough cells to score | inactive
Cd244a (GeneID 18106) | 1 | -1.75 | 1.13 | 1.24 | enough cells to score | active
Smc4 (GeneID 70099) | 1 | 0.55 | 1.65 | 1.62 | enough cells to score | inactive

The list goes on, starting with the last 7 of the part before.
target gene | reagent | p65 translocation robust z-score | nuclear/cytoplasmic p65 ratio, rep 1 | nuclear/cytoplasmic p65 ratio, rep 2 | low cell count flag | Call
Actr1a (GeneID 54130) | 1 | -0.46 | 1.58 | 1.52 | enough cells to score | inactive
Mpdu1 (GeneID 24070) | 1 | -0.38 | 1.81 | 1.46 | enough cells to score | inactive
Rab9b (GeneID 319642) | 1 | 0.07 | 1.64 | 1.6 | enough cells to score | inactive
Cntln (GeneID 338349) | 1 | -0.88 | 1.51 | 1.36 | enough cells to score | inactive
Cntln (GeneID 338349) | 2 | -0.31 | 1.51 | 1.51 | enough cells to score | inactive
Cd244a (GeneID 18106) | 1 | -1.75 | 1.13 | 1.24 | enough cells to score | active
Smc4 (GeneID 70099) | 1 | 0.55 | 1.65 | 1.62 | enough cells to score | inactive
Trmt1 (GeneID 212528) | 1 | -1.36 | 1.37 | 1.35 | enough cells to score | inactive
Gimap3 (GeneID 83408) | 1 | -2.17 | 1.28 | 1.11 | enough cells to score | active
Fam53b (GeneID 77938) | 1 | – | 1.13 | 1.13 | fewer than 50 cells per well; well left out of scoring | inactive
Gucy2f (GeneID 245650) | 1 | 0.25 | 1.82 | 1.34 | enough cells to score | inactive
Mrgprx3-ps (GeneID 100502859) | 1 | 0.07 | 1.5 | 1.61 | enough cells to score | inactive
Cxcl10 (GeneID 15945) | 1 | -1 | 1.54 | 1.25 | enough cells to score | inactive
Polr2b (GeneID 231329) | 1 | 0.29 | 1.54 | 1.38 | enough cells to score | inactive
Krt14 (GeneID 16664) | 1 | 0.15 | 1.54 | 1.36 | enough cells to score | inactive
Klk11 (GeneID 56538) | 1 | 1.47 | 1.54 | 1.49 | enough cells to score | inactive
Desi1 (GeneID 28075) | 1 | -1.51 | 1.34 | 1.55 | enough cells to score | inactive
Tarm1 (GeneID 245126) | 1 | 0.54 | 1.55 | 1.57 | enough cells to score | inactive
Tpm2 (GeneID 22004) | 1 | 0.15 | 1.49 | 1.57 | enough cells to score | inactive
Pnpla3 (GeneID 116939) | 1 | – | 1.41 | 1.85 | fewer than 50 cells per well; well left out of scoring | inactive
Or52z1 (GeneID 18368) | 1 | 0.7 | 1.53 | 1.35 | enough cells to score | inactive
Vmn1r192 (GeneID 252907) | 1 | -0.9 | 1.29 | 1.13 | enough cells to score | inactive
Psors1c2 (GeneID 57390) | 1 | -1.76 | 1.06 | 1.1 | enough cells to score | active
Or8g53 (GeneID 258605) | 1 | 0.15 | 1.34 | 1.26 | enough cells to score | inactive
Dio3 (GeneID 107585) | 1 | 4.65 | 2.07 | 1.95 | enough cells to score | active
Tmem127 (GeneID 69470) | 1 | – | 1.44 | 1.36 | fewer than 50 cells per well; well left out of scoring | inactive
Nlrp9b (GeneID 243874) | 1 | -0.86 | 1.75 | 1.37 | enough cells to score | inactive
Aspn (GeneID 66695) | 1 | -0.06 | 1.41 | 1.57 | enough cells to score | inactive
Ly6g6d (GeneID 114654) | 1 | -1.31 | 1.55 | 1.32 | enough cells to score | inactive
Ly6g6d (GeneID 114654) | 2 | -1.43 | 1.19 | 1.33 | enough cells to score | inactive
Kcnu1 (GeneID 16532) | 1 | -0.2 | 1.49 | 1.43 | enough cells to score | inactive
Or6b2 (GeneID 259040) | 1 | 0.42 | 1.68 | 1.47 | enough cells to score | inactive
Rpl41 (GeneID 67945) | 1 | – | 1.22 | 1.08 | fewer than 50 cells per well; well left out of scoring | inactive
Kif23 (GeneID 71819) | 1 | – | 1.27 | 1.11 | fewer than 50 cells per well; well left out of scoring | inactive
Rp9 (GeneID 55934) | 1 | 0.97 | 1.51 | 1.36 | enough cells to score | inactive
Zc3h13 (GeneID 67302) | 1 | 0.4 | 1.23 | 1.4 | enough cells to score | inactive
Oacyl (GeneID 319888) | 1 | -0.04 | 1.22 | 1.46 | enough cells to score | inactive
Rrs1 (GeneID 59014) | 1 | -0.63 | 1.34 | 1.13 | enough cells to score | inactive
Rasal1 (GeneID 19415) | 1 | -0.41 | 1.47 | 1.08 | enough cells to score | inactive
